According to publication PMC5603524, “An alternate mode of oligomerization for E. coli SecA” (Scientific Reports, 2017):
No constants are given. Whether binding was seen depends on the method and setting.

Tests used:
[1] = target: SecA-N68∆NC (E. coli) (UniProt P10408); test: AUC; sedimentation velocity, 20 °C, 50 mM Tris-HCl pH 7.5, 100 mM KCl, 2 mM EDTA, 5 mM MgCl2, 5 mM TCEP-HCl; SedFit analysis at a range of concentrations; both purified
[2] = target: SecA-N68∆NC (E. coli) (UniProt P10408); test: SEC; analytical gel filtration, Superdex 200 HR 10/30, 50 mM Tris-HCl pH 7.5, 100 mM KCl, 1 mM EDTA, 5 mM MgCl2, 5 mM β-mercaptoethanol, room temperature; H6-SecA-N68 applied at up to 4 mg/mL, SecA-N68∆NC at 10 mg/mL; both purified
[3] = target: SecA-N68ΔNC-ER (E. coli) (UniProt P10408); test: crystal structure; SecA-N68∆NC with entropy-reducing mutations, bound to Mg2+-ADP; 0.1 M Tris-HCl pH 8.0, 18% PEG 3000, 0.9% cadaverine, 25 °C; space group P21; both purified

binding [1]	binding [2]	binding [3]	Binder
no binding (tested: 4.0 mg/mL)	no binding (tested: 10 mg/mL)	–	SecA-N68∆NC (domain or fragment, UniProt P10408 15-590) GADRTLRRMRKVVNIINAMEPEMEKLSDEELKGKTAEFRARLEKGEVLENLIPEAFAVVREASKRVFGMRHFDVQLLGGMVLNERCIAEMRTGEGKTLTATLPAYLNALTGKGVHVVTVNDYLAQRDAENNRPLFEFLGLTVGINLPGMPAPAKREAYAADITYGTNNEYGFDYLRDNMAFSPEERVQRKLHYALVDEVDSILIDEARTPLIISGPAEDSSEMYKRVNKIIPHLIRQEKEDSETFQGEGHFSVDEKSRQVNLTERGLVLIEELLVKEGIMDEGESLYSPANIMLMHHVTAALRAHALFTRDVDYIVKDGEVIIVDEHTGRTMQGRRWSDGLHQAVEAKEGVQIQNENQTLASITFQNYFRLYEKLAGMTGTADTEAFEFSSIYKLDTVVVPTNRPMIRKDLPDLVYMTEAEKIQAIIEDIKERTAKGQPVLVGTISIEKSELVSNELTKAGIKHNVLNAKFHANEAAIVAQAGYPAAVTIATNMAGRGTDIVLGGSWQAEVAALENPTAEQIEKIKADWQVRHDAVLEAGGLHIIGTERHESRRIDNQLRGRSGRQGDAGSSRFYLSM
–	–	no binding	SecA-N68ΔNC-ER (domain or fragment, UniProt P10408 15-590) GADRTLRRMRKVVNIINAMEPEMEKLSDEELKGKTAEFRARLAAGAVLENLIPEAFAVVREASKRVFGMRHFDVQLLGGMVLNERCIAEMRTGEGKTLTATLPAYLNALTGKGVHVVTVNDYLAQRDAENNRPLFEFLGLTVGINLPGMPAPAKREAYAADITYGTNNEYGFDYLRDNMAFSPAARVQRKLHYALVDEVDSILIDEARTPLIISGPAEDSSEMYKRVNKIIPHLIRQEKEDSETFQGEGHFSVDEKSRQVNLTERGLVLIEELLVKEGIMDEGESLYSPANIMLMHHVTAALRAHALFTRDVDYIVKDGEVIIVDEHTGRTMQGRRWSDGLHQAVEAKEGVQIQNENQTLASITFQNYFRLYEKLAGMTGTADTEAFEFSSIYKLDTVVVPTNRPMIRKDLPDLVYMTEAEKIQAIIEDIKERTAKGQPVLVGTISIEKSELVSNELTKAGIKHNVLNAKFHANEAAIVAQAGYPAAVTIATNMAGRGTDIVLGGSWQAEVAALENPTAEQIEKIKADWQVRHDAVLEAGGLHIIGTERHESRRIDNQLRGRSGRQGDAGSSRFYLSM
